pEC50: −log10 of the molar value.
Test system: T. cruzi CA-I/72
Experiment: Secondary screening (dose-response assay)
Format: cell-based
Conditions: Trypanosoma cruzi, C2C12, 72 h
Description: T. cruzi CA-I/72 trypomastigotes were obtained from C2C12 infected-culture supernatants after 4–7 days of infection. Cultures were maintained at 37°C with 5% CO2. […] Compounds were added at 10 mM in 50 nl per well using a Biomek FX (Beckman Coulter) for a final 10 μM concentration in 50 μl total volume, and 2,500 parasites were added in 10 μl per well. The plate was incubated for 72 hours at 37°C with 5% CO2. After the incubation, the plate was fixed with the addition of 50 μl of 8% paraformaldehyde solution, followed by two successive washing steps using PBS. Finally, a staining solution containing 0.5 μg/ml of 4',6-diamidino-2-phenylindole (DAPI) was added to each well of the plate and incubated for at least 4 hours prior to reading. Images were acquired by an IN Cell Analyzer 2000 (GE Healthcare) and analyzed by IN Cell Analyzer Developer 1.6 software. […] Numbers of host cells and intracellular amastigotes were determined based on host cell and parasite nucleus quantification, providing a measure of growth inhibition during the first 72 h of post-infection treatment compared to untreated controls. […] The host cell viability was assessed based on the total number of cells divided by the average number of cells from untreated controls (0.1% DMSO), being <0.5 considered a cytotoxic compound. This assay was performed in duplicate. […]

## CCCCCCCCCCCCCCCC[n+]1ccccc1 [SC-0011466, cetylpyridinium chloride]
  pEC50: < 5.00
  EC90: > 10 µM
